Measured values taken from PubChem BioAssay AID540256 (National Center for Advancing Translational Sciences (NCATS), 2011).
The whole screen tested about 300,000 compounds, of which about 3,700 (1.2%) were called active. Inconclusive means that the source gave no clear call. Such entries were picked first, then a sample of the others. Calls follow the shape of the full dose curve; tested in HEK293 cells. A potency beside an inconclusive call is a rough fit, not a confirmed value.

Experiment: qHTS for Inhibitors of binding or entry into cells for Lassa Virus; also: nearly all actives have a fitted effect of over 50% in size
Settings: Lassa virus pseudotype entry inhibition, cell reporter; series mostly up to 37.9 µM
Potency is read from the fitted curve at half-maximal effect.

| Structure (SMILES) | Potency |
| --- | --- |
| CCCc1nnc(NC(=O)c2ccc([N+](=O)[O-])cc2)s1 | inconclusive: 31.6 µM [activator, single point] |
| CN(C)c1nc(N)nc(CSc2nc3cc(Cl)ccc3o2)n1 | inconclusive: 4.11 µM [activator, full curve, poor fit] |
| CCOc1ccc(N=C2NC(=O)S/C2=C\c2ccc(N(C)C)cc2)cc1 | inactive |
| COc1ccc2nc(NC(=O)CC3Oc4ccccc4NC3=O)sc2c1 (stereo not drawn) | inactive |
| COc1cccc(-c2nn(-c3ccccc3)cc2/C=C(\C#N)C(=O)NCCCn2ccnc2)c1 | inconclusive: 28.2 µM [inhibitor, single point] |
| CC(=O)Nc1ccc(Nc2cc(C)nc3c(-c4ccc(Cl)cc4)c(C)nn23)cc1 | inconclusive: 35.5 µM [inhibitor, partial curve, poor fit] |
| Cc1ccc(NC(=O)NCc2c(C)nn(C)c2C)cc1Cl | inactive |
| O=C(Cc1ccc(-c2ccccc2)cc1)NCc1ccccc1 | inconclusive: 0.82 µM [inhibitor, full curve] |
| CC(C(=O)NC1CCCC1)N1C(=O)c2cccc3cccc1c23 (stereo not drawn) | inactive |
| COc1cccc2cc(C(=O)N3CCc4ccccc4C3)c(=O)oc12 | inconclusive: 35.5 µM [activator, single point] |
| CCCn1c(SCC(=O)NCCc2ccc(Cl)cc2Cl)n[nH]c1=O | inconclusive: 5.8 µM [inhibitor, partial curve, poor fit] |
| Cc1ccc(/C=C2/NC(=O)N(Cc3ccccc3)C2=O)s1 | inconclusive: 4.61 µM [inhibitor, full curve, poor fit] |
| CCOC(=O)c1c(-c2ccc(C)o2)csc1NC(=O)CN1CCN(CC)CC1 | inconclusive: 1.03 µM [inhibitor, full curve, poor fit] |
| Nc1cc(N)nc(SCC(=O)NCCC2=CCCCC2)n1 | inconclusive: 35.5 µM [activator, partial curve, poor fit] |
| CN1CC(C(=O)c2ccccc2)C(c2ccccc2)C1 (stereo not drawn) | inconclusive: 6.31 µM [inhibitor, single point] |
| COc1cccc(Cc2nc3ccccc3nc2SCC(=O)N2CCCCC2C)c1 (stereo not drawn) | active: 11.2 µM |
| CSc1ccc(CN(C)C(=O)C(Cc2ccccc2)NC(=O)c2ccccc2)cc1 (stereo not drawn) | inconclusive: 35.5 µM [inhibitor, single point] |
| CC(Oc1ccccc1)C(=O)N1CCN(c2ccc(N3CCCCCC3)nn2)CC1 (stereo not drawn) | inactive |
| COc1ccc(Cn2ccnc2SCC(=O)NC2CCCCC2)cc1 | inconclusive: 3.16 µM [inhibitor, single point] |
| Cc1[nH]c(=O)c(C#N)c(C)c1CCC(=O)NCc1cccc(C(F)(F)F)c1 | inactive |
| CCOC(=O)c1c(NC(=O)C2C3CCC(O3)C2C(=O)O)sc(C)c1-c1ccc(C)cc1 (stereo not drawn) | inactive |
| O=C(CSc1nc2c([nH]c3ccccc32)c(=O)n1-c1cccc(Cl)c1)N1CCc2ccccc21 | inactive |

A different layout for some results above:
Structure (SMILES) | Potency
Cc1[nH]c(=O)c(C#N)c(C)c1CCC(=O)NCc1cccc(C(F)(F)F)c1 | inactive
CCOC(=O)c1c(NC(=O)C2C3CCC(O3)C2C(=O)O)sc(C)c1-c1ccc(C)cc1 (stereo not drawn) | inactive

(listing goes on)

| Structure (SMILES) | Potency |
| --- | --- |
| O=C(O/N=C/c1ccc(Br)cc1)c1ccc(F)cc1 | inactive |
| COc1ccc(C(=O)Nc2ccc(C(=O)Nc3cccnc3)cc2)cc1 | inconclusive: 15.8 µM [inhibitor, single point] |
| COc1ccc(/C=C/c2ccncc2)cc1OC | inactive |
| COc1ccc(CNC(=O)CCOc2ccc(C(C)(C)C)cc2)cc1 | inconclusive: 12.6 µM [inhibitor, partial curve, poor fit] |
| O=C(O)c1ccc2nc(-c3cc4cc(Cl)ccc4oc3=O)[nH]c2c1 | inactive |
| O=c1nc2onnc2c(C=NO)[nH]1 | inactive |
| O=C(CCCCn1c(=O)c2ccccc2n(Cc2cccc(F)c2)c1=O)NCc1ccc2c(c1)OCO2 | inactive |
| Cc1ccc(/C=N/c2sc(Cc3ccccc3)c(C)c2C(N)=O)o1 | inconclusive: 0.103 µM [inhibitor, full curve, poor fit] |
| Cc1cccc(Nc2c(-c3ccsc3)nc3nc(C)cc(C)n23)c1 | inconclusive: 35.5 µM [inhibitor, single point] |
| CCc1sc(N(C(=O)Cc2ccccc2)c2cccc(F)c2)nc1-c1ccc(C)cc1 | inconclusive: 3.55 µM [inhibitor, partial curve, poor fit] |
| CC(=O)Nc1cccc(-c2cc(C)c3cc4c(cc3n2)OCO4)c1 | inconclusive: 15.8 µM [inhibitor, single point] |
| C=CCN(C(=O)CCC(=O)Nc1cc(C)on1)C(C(=O)NC(C)(C)C)c1ccc(OC)cc1 (stereo not drawn) | inconclusive: 35.5 µM [inhibitor, single point] |
| COCCN(C(=O)COC(=O)/C(=C/c1ccccc1)NC(C)=O)c1c(N)n(Cc2ccccc2)c(=O)[nH]c1=O | inconclusive: 11.2 µM [activator, partial curve, poor fit] |
| O=S(=O)(NCC(Nc1ccc(Cl)cc1)c1ccccc1)c1ccc(Cl)cc1 (stereo not drawn) | inconclusive: 0.326 µM [inhibitor, partial curve] |
| Cn1c(SC2=CS(=O)(=O)c3ccccc32)nc2ccccc21 | inconclusive: 20 µM [inhibitor, partial curve, poor fit] |
| C=CCSc1nnc(C)c(/C=C/Nc2ccc(Cl)cc2)n1 | inconclusive: 35.5 µM [inhibitor, single point] |
| COc1ccc(-c2nc3cc(C)ccn3c2NC(=O)c2cccc(F)c2)cc1 | inconclusive: 2.82 µM [activator, partial curve, poor fit] |
| Cn1c(=O)c2c(-c3ccc(Br)cc3)n(Cc3ccc(F)cc3)cc2n(C)c1=O | inactive |
| CCCCC(O)CN1CCC(c2ccccc2)CC1 (stereo not drawn) | inconclusive: 11.6 µM [inhibitor, partial curve, poor fit] |
| CCN(CC(=O)NC1CCS(=O)(=O)C1)S(=O)(=O)c1ccc(Cl)c(C(F)(F)F)c1 (stereo not drawn) | inconclusive: 5.01 µM [inhibitor, partial curve, poor fit] |
| Cc1ccc(C(=O)N2CCN(c3ccccc3F)CC2)cc1S(=O)(=O)N1CCOCC1 | inconclusive: 0.562 µM [inhibitor, full curve, poor fit] |
